These results are taken from the supplement of paper PMC6143611.

Test [1] deals with Danio rerio larva rod photoreceptor outer segment. The test is described as follows: rod outer segment growth distance Dg, difference from same-week DMSO control mean; higher = more outer segment growth. To be noted: 20 µM; treatment time: 4 days (6-10 dpf).
Test [2] shares this test system. The test is described as follows: rod outer segment shedding distance Ds, difference from same-week DMSO control mean; higher = less outer segment shedding. The following applies: 20 µM; treatment time: 4 days (6-10 dpf).

Counter-ions that a name gives are not always drawn. ± gives the uncertainty stated by the source. This is one part of the list. Part of the spread comes from offsets between plates or batches.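 At 6 dpf, larvae had a heat-shock-induced fluorescent stripe placed in rod outer segments; shedding distance, from stripe to outer segment tip, was measured in confocal stacks, roughly three fish per compound. Controls received 0.2% DMSO vehicle; compounds were flagged for ≥20% change versus same-week control and p < 0.001 (Dunnett test, mixed-effects models).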

Turning to `CCN(CC)C(=O)c1ccc(C2=CC3(CCNCC3)Oc3cccc(O)c32)cc1`, the “rod outer segment growth distance Dg” value in test [1] was -1.58 ± 0.15 um. Besides, the “rod outer segment shedding distance Ds” value in test [2] is -0.22 ± 0.18 um.

Turning to `CC(=O)Nc1ccc(OC[C@](C)(O)C(=O)Nc2ccc([N+](=O)[O-])c(C(F)(F)F)c2)cc1` [Andarine], in test [1], the “rod outer segment growth distance Dg” value is -1.82 ± 0.15 um. In addition, the “rod outer segment shedding distance Ds” value in test [2] was -1.63 ± 0.2 um.

On to `CCC1(c2ccc(N)cc2)CCC(=O)NC1=O` (stereo not drawn) [Aminoglutethimide], for which the “rod outer segment growth distance Dg” value in test [1] is -0.46 ± 0.19 um. The “rod outer segment shedding distance Ds” value in test [2] is -0.14 ± 0.18 um.

Take `CNCC(O)c1ccc(O)cc1` (stereo not drawn) [Synephrine HCl]: the “rod outer segment growth distance Dg” value in test [1] was -0.06 ± 0.24 um. For the same compound, the “rod outer segment shedding distance Ds” value in test [2] was found to be 0.45 ± 0.28 um.

On to `CN(C)[C@@H]1C(=O)C(C(N)=O)=C(O)[C@@]2(O)C(=O)C3=C(O)c4c(O)cccc4[C@@](C)(O)[C@H]3C[C@@H]12` [Tetracycline HCl], for which the “rod outer segment growth distance Dg” value in test [1] turned out to be 0.48 ± 0.29 um. Besides, the “rod outer segment shedding distance Ds” value in test [2] was -0.14 ± 0.16 um.

With `CN(C)C(=O)Oc1ccc[n+](C)c1` [Pyridostigmine Bromide], the “rod outer segment growth distance Dg” value in test [1] turned out to be 1.17 ± 0.15 um. The “rod outer segment shedding distance Ds” value in test [2] was 0.12 ± 0.12 um.

`CN(C)Cc1c[nH]c2ccccc12` [Gramine]: the “rod outer segment growth distance Dg” value in test [1] is 0.68 ± 0.27 um. The “rod outer segment shedding distance Ds” value in test [2] was 0.55 ± 0.28 um.

Take `CNCC(O)c1ccc(O)cc1` (stereo not drawn) [Synephrine]: in test [1], the “rod outer segment growth distance Dg” value is 0.17 ± 0.21 um. Besides, the “rod outer segment shedding distance Ds” value in test [2] was -0.36 ± 0.34 um.

On to `CC(C)N(CCNC(=O)CN1CCCC1=O)C(C)C` [Pramiracetam], for which the “rod outer segment growth distance Dg” value in test [1] was determined as 0.06 ± 0.23 um. Besides, the “rod outer segment shedding distance Ds” value in test [2] is -0.85 ± 0.15 um.

Turning to `O=C1CC[C@@]2(O)[C@H]3Cc4ccc(O)c5c4[C@@]2(CCN3CC2CC2)[C@H]1O5` [Naltrexone HCl], the “rod outer segment growth distance Dg” value in test [1] stood at 0.99 ± 0.23 um. Besides, in test [2], the “rod outer segment shedding distance Ds” value is -0.19 ± 0.24 um.

Consider `CCC(COC(=O)c1cc(OC)c(OC)c(OC)c1)(c1ccccc1)N(C)C` (stereo not drawn) [Trimebutine], for which, in test [1], the “rod outer segment growth distance Dg” value was -0.44 ± 0.2 um. The “rod outer segment shedding distance Ds” value in test [2] is -0.66 ± 0.22 um.

Consider `CN1c2ccccc2C(NCCCCCCC(=O)O)c2ccc(Cl)cc2S1(=O)=O` (stereo not drawn) [Tianeptine sodium], for which, in test [1], the “rod outer segment growth distance Dg” value was -0.3 ± 0.17 um. Moreover, the “rod outer segment shedding distance Ds” value in test [2] came out at 0.05 ± 0.19 um.

In the case of `O=C(O[C@H]1C[C@H]2CC[C@@H](C1)[N+]21CCCC1)C(O)(c1ccccc1)c1ccccc1` [Trospium chloride], in test [1], the “rod outer segment growth distance Dg” value was -0.6 ± 0.26 um. In test [2], the “rod outer segment shedding distance Ds” value was -0.35 ± 0.15 um.

On to `CCc1c(C(=O)C(N)=O)c2c(OCC(=O)O)cccc2n1Cc1ccccc1`, for which the “rod outer segment growth distance Dg” value in test [1] is -0.82 ± 0.17 um. In test [2], the “rod outer segment shedding distance Ds” value was -0.24 ± 0.28 um.

Turning to `Cc1cccc(C)c1NC1=NCCCS1` [Xylazine HCl], the “rod outer segment growth distance Dg” value in test [1] is -0.43 ± 0.23 um. Also, the “rod outer segment shedding distance Ds” value in test [2] is 0.26 ± 0.32 um.

For the compound `CC1(C)CC(O)CC(C)(C)N1[O]` [Tempol], in test [1], the “rod outer segment growth distance Dg” value was -0.81 ± 0.18 um. Further, the “rod outer segment shedding distance Ds” value in test [2] is -0.28 ± 0.13 um.

`CN1[C@@H]2CC(O)C[C@H]1[C@@H]1O[C@@H]12` (stereo partly drawn) [Scopine HCl]: the “rod outer segment growth distance Dg” value in test [1] was -0.39 ± 0.24 um. Further, the “rod outer segment shedding distance Ds” value in test [2] was -0.65 ± 0.15 um.

Take `CCCN1CCO[C@@H]2c3cc(O)ccc3OC[C@H]21`: in test [1], the “rod outer segment growth distance Dg” value was -0.22 ± 0.27 um. The “rod outer segment shedding distance Ds” value in test [2] was -0.78 ± 0.3 um.

Take `CC(NC(C)(C)C)C(=O)c1cccc(Cl)c1` (stereo not drawn) [Amfebutamone HCl]: in test [1], the “rod outer segment growth distance Dg” value is -0.96 ± 0.23 um. Besides, in test [2], the “rod outer segment shedding distance Ds” value stood at 0.32 ± 0.27 um.

In the case of `O=c1cccc2n1C[C@@H]1CNC[C@H]2C1` [Cytisine], in test [1], the “rod outer segment growth distance Dg” value was -0.54 ± 0.34 um. In addition, the “rod outer segment shedding distance Ds” value in test [2] is -0.43 ± 0.31 um.

Consider `C[C@]12N[C@H](Cc3ccccc31)c1ccccc12` [MK-801 (Dizocilpine)], for which the “rod outer segment growth distance Dg” value in test [1] was -0.1 ± 0.19 um. The “rod outer segment shedding distance Ds” value in test [2] is -0.65 ± 0.14 um.

`CC(O)(CS(=O)(=O)c1ccc(F)cc1)C(=O)Nc1ccc(C#N)c(C(F)(F)F)c1` (stereo not drawn) [Bicalutamide]: in test [1], the “rod outer segment growth distance Dg” value is -0.38 ± 0.16 um. The “rod outer segment shedding distance Ds” value in test [2] is -1.53 ± 0.25 um.

Consider `C=C[C@H]1CN2CC[C@H]1C[C@H]2[C@H](O)c1ccnc2ccccc12` [Cinchonidine], for which the “rod outer segment growth distance Dg” value in test [1] was found to be 0.53 ± 0.36 um. Moreover, in test [2], the “rod outer segment shedding distance Ds” value is -0.01 ± 0.32 um.

For `C[N+]1(C)[C@@H]2C[C@@H](OC(=O)[C@H](CO)c3ccccc3)C[C@H]1[C@@H]1O[C@@H]12` [Methscopolamine], in test [1], the “rod outer segment growth distance Dg” value worked out at 0.48 ± 0.28 um. The “rod outer segment shedding distance Ds” value in test [2] was 0.38 ± 0.22 um.

Consider `CC[C@@H](C(N)=O)N1CCCC1=O` [Levetiracetam], for which the “rod outer segment growth distance Dg” value in test [1] worked out at 0.46 ± 0.31 um. The “rod outer segment shedding distance Ds” value in test [2] is 0.3 ± 0.19 um.

Consider `O=P1(N(CCCl)CCCl)NCCCO1` (stereo not drawn) [Cyclophosphamide], for which the “rod outer segment growth distance Dg” value in test [1] was -0.09 ± 0.21 um. Besides, the “rod outer segment shedding distance Ds” value in test [2] is -0.48 ± 0.23 um.

With `CN1[C@@H]2CC[C@H]1C[C@@H](OC(=O)C(CO)c1ccccc1)C2` (stereo partly drawn) [Atropine], the “rod outer segment growth distance Dg” value in test [1] is 0.71 ± 0.26 um. In addition, in test [2], the “rod outer segment shedding distance Ds” value is -0.16 ± 0.35 um.

As for `CC(=O)O[C@H]1C[C@@H]2CC[C@@H]3[C@H](CC[C@@]4(C)[C@H]3C[C@H]([N+]3(C)CCCCC3)[C@@H]4OC(C)=O)[C@@]2(C)C[C@@H]1[N+]1(C)CCCCC1` [Pancuronium dibromide], the “rod outer segment growth distance Dg” value in test [1] was -0.09 ± 0.2 um. Besides, in test [2], the “rod outer segment shedding distance Ds” value is 0.2 ± 0.26 um.

`CN1CCC(c2c[nH]c3ccc(O)cc23)CC1`: the “rod outer segment growth distance Dg” value in test [1] is 0.79 ± 0.17 um. In addition, in test [2], the “rod outer segment shedding distance Ds” value is -0.58 ± 0.13 um.

In the case of `COc1ccc(C(=O)N2CCCC2=O)cc1` [Aniracetam], the “rod outer segment growth distance Dg” value in test [1] was -0.38 ± 0.14 um. Moreover, in test [2], the “rod outer segment shedding distance Ds” value was -0.31 ± 0.18 um.

Take `Cc1cccc(C)c1NC(=O)CN1CCCC1=O` [Nefiracetam]: in test [1], the “rod outer segment growth distance Dg” value is 1.09 ± 0.29 um. In addition, the “rod outer segment shedding distance Ds” value in test [2] was found to be 0.74 ± 0.28 um.

As for `C[C@@H]1CC[C@H]2[C@@H](C)C(=O)O[C@@H]3O[C@@]4(C)CC[C@@H]1[C@]32OO4` [Artemisinin], in test [1], the “rod outer segment growth distance Dg” value was -0.65 ± 0.15 um. Besides, the “rod outer segment shedding distance Ds” value in test [2] is -0.08 ± 0.19 um.

Turning to `CN1[C@@H]2C[C@@H](OC(=O)[C@H](CO)c3ccccc3)C[C@H]1[C@@H]1O[C@@H]12` [Scopolamine HBr], the “rod outer segment growth distance Dg” value in test [1] is 0.12 ± 0.23 um. Moreover, the “rod outer segment shedding distance Ds” value in test [2] is -0.31 ± 0.33 um.

Take `CC1C=CC=CCCC=CC=CC=CC=CC(OC2OC(C)C(O)C(N)C2O)CC2OC(O)(CC(O)C(O)CCC(O)CC(O)CC(O)CC(=O)OC(C)C(C)C1O)CC(O)C2C(=O)O` (stereo not drawn) [Nystatin (Fungicidin)]: the “rod outer segment growth distance Dg” value in test [1] was -0.53 ± 0.27 um. Besides, the “rod outer segment shedding distance Ds” value in test [2] is -1.41 ± 0.32 um.
